Where “and” joins values, the source holds several entries; their conditions need not be identical. Equal values may be shown once. Where a name gives a salt, the structure may show the parent alone. ± gives the standard deviation of the averaged measurements. Some of the results follow. Many values rest on one well or one pass, so single values are uncertain.
System: RAW 264.7
Experiment: HMGB1-induced TNF-alpha production relative to HMGB1-stimulated control; higher = more TNF-alpha secretion (less inhibition)
Conditions: stimulus: HMGB1 5 ug/ml, 18 h
[1] = compound concentration: 1 ug/ml

Compound | HMGB1-induced TNF-alpha production (compound concentration: 3 uM) | HMGB1-induced TNF-alpha production [1] [%]
S=c1[nH]cnc2nc[nH]c12 [Mercaptopurine] | 102% | 
S=c1[nH]cnc2nc[nH]c12 | 86.3 ± 2.5% | 
COc1cc2c(cc1OC)[C@@H]1C(=O)c3ccc4c(c3O[C@@H]1CO2)C=CC(C)(C)O4 | 99.4% | 
C1CCN2CC3CC(CN4CCCC[C@H]34)C2C1 (some centres not stated) |  | 75.2
NCCCCN [Putrescine dihydrochloride] | 105% | 
CN(Cc1ccc(C(C)(C)C)cc1)Cc1cccc2ccccc12 [Butenafine] | 103 ± 16% | 
CC[C@@]1(O)C(=O)OCc2c1cc1n(c2=O)Cc2cc3c(CN(C)C)c(O)ccc3nc2-1 [Topotecan] | 87 ± 1.6% | 
CC[C@@]1(O)C(=O)OCc2c1cc1n(c2=O)Cc2cc3c(CN(C)C)c(O)ccc3nc2-1 | 94.4% and 81.1% | 
Nc1nnc(-c2cccc(Cl)c2Cl)c(N)n1 | 96.6 ± 12% | 
Nc1nnc(-c2cccc(Cl)c2Cl)c(N)n1 [Lamotrigine] | 113 ± 9.4% | 
Nc1nc(=O)[nH]cc1F | 89% | 
Nc1nc(=O)[nH]cc1F [Flucytosine] | 99.8% | 
Oc1cc(O)cc(/C=C/c2ccc(O)c(O)c2)c1 [Piceatannol] | 119% | 
Cc1nc(N=Nc2cc(S(=O)(=O)O)c3cc([N+](=O)[O-])cc(S(=O)(=O)O)c3c2)c(COP(=O)(O)O)c(C=O)c1O [PPNDS tetrasodium] | 111% | 
Cc1cccc(C)c1NC(=O)CN1CCN(CCCC(c2ccc(F)cc2)c2ccc(F)cc2)CC1 [Lidoflazine] | 61.2% | 
Cc1cccc(C2CN(C)CCc3c2cc(O)c(O)c3Cl)c1 (configuration not stated) | 118% | 
Cc1c(C)c2c(c(C)c1O)CCC(C)(CCCC(C)CCCC(C)CCCC(C)C)O2 (stereo not drawn) [alpha-TOCHOPHEROL] | 97% | 
COc1cc(C)c(Cc2cnc(N)nc2N)cc1OC | 102% | 
CC(=O)O[C@]1(C(C)=O)CC[C@H]2[C@@H]3C=C(C)C4=CC(=O)CC[C@]4(C)[C@H]3CC[C@@]21C | 97.7 ± 24% | 
CC(=O)O[C@]1(C(C)=O)CC[C@H]2[C@@H]3C=C(C)C4=CC(=O)CC[C@]4(C)[C@H]3CC[C@@]21C [Megestrol acetate] | 109% | 
CC(=O)O[C@]1(C(C)=O)CC[C@H]2[C@@H]3C=C(C)C4=CC(=O)CC[C@]4(C)[C@H]3CC[C@@]21C [Megestrol Acetate] | 99.8% | 

Compound | HMGB1-induced TNF-alpha production (compound concentration: 3 uM) | HMGB1-induced TNF-alpha production [1] [%]
NC[C@H]1O[C@H](O[C@H]2[C@H](O)[C@@H](O[C@H]3O[C@H](CO)[C@@H](O)[C@H](N)[C@H]3O)[C@H](N)C[C@@H]2N)[C@H](N)[C@@H](O)[C@@H]1O | 91.8% | 
CC/C=C\C/C=C\C/C=C\CCCCCCCC(=O)O [Linolenic acid] |  | 78.9
C#CC1(O)CC[C@H]2[C@@H]3CCC4=CC(=O)CC[C@@H]4[C@H]3CC[C@@]21CC (some centres not stated) | 84.3% | 
O=c1c(-c2ccccc2)c1-c1ccccc1 [diphenylcyclopropenone] | 114% | 
CC(C)(C)NCC(O)COc1cccc2c1CC(O)C(O)C2 (configuration not stated) [Nadolol] | 117% | 
CC(C)(C)NCC(O)COc1cccc2c1CC(O)C(O)C2 (configuration not stated) | 87.2% | 
C[C@H](CCC(=O)NCCS(=O)(=O)O)[C@H]1CC[C@H]2[C@@H]3[C@H](O)C[C@@H]4C[C@H](O)CC[C@]4(C)[C@H]3C[C@H](O)[C@]12C [Sodium Taurocholate hydrate] | 85.2% | 
C[C@H](CCC(=O)NCCS(=O)(=O)O)[C@H]1CC[C@H]2[C@@H]3[C@H](O)C[C@@H]4C[C@H](O)CC[C@]4(C)[C@H]3C[C@H](O)[C@]12C [Taurocholic acid] | 87.9% | 
Cc1ccc(S(=O)(=O)/C=C/C#N)cc1 | 39.1% | 
CCCn1c(=O)c2[nH]c(-c3ccc(OCC(=O)NCCN)cc3)nc2n(CCC)c1=O [Xanthine amine congener] | 97.3% | 
CC(=O)OC[C@H]1OC=C[C@@H](OC(C)=O)[C@H]1OC(C)=O [3,4,6-Tri-O-acetyl-D-galactal] |  | 85.8
CCOCCn1c(N2CCCN(C)CC2)nc2ccccc21 [Emedastine] | 100% | 
CN1CC(=O)N=C1NC(=O)Nc1cccc(Cl)c1 [Fenobam] | 120% | 
CC[C@H](C)C(=O)O[C@H]1C[C@H](O)C=C2C=C[C@H](C)[C@H](CC[C@@H](O)C[C@@H](O)CC(=O)O)[C@H]21 | 71.4% | 
CC[C@H](C)C(=O)O[C@H]1C[C@H](O)C=C2C=C[C@H](C)[C@H](CC[C@@H](O)C[C@@H](O)CC(=O)O)[C@H]21 [Pravastatin] | 103% | 
CC[C@H](C)C(=O)O[C@H]1C[C@H](O)C=C2C=C[C@H](C)[C@H](CC[C@@H](O)C[C@@H](O)CC(=O)O)[C@H]21 [PRAVASTATIN Sodium] | 103% | 
CCCc1c(OCCCOc2ccc(OCC(=O)O)cc2)ccc(C(C)=O)c1O | 93.4% | 
CC1=C(C(=O)O)N2C(=O)[C@@H](NC(=O)[C@H](N)c3ccccc3)[C@H]2SC1 [Cephalexin hydrate] | 81.6% | 
CC1=C(C(=O)O)N2C(=O)[C@@H](NC(=O)[C@H](N)c3ccccc3)[C@H]2SC1 [Cephalexin monohydrate] | 83.4 ± 21% | 
CC1=C(C(=O)O)N2C(=O)[C@@H](NC(=O)[C@H](N)c3ccccc3)[C@H]2SC1 | 84% | 
Cc1nccn1CC1CCc2c(c3ccccc3n2C)C1=O (configuration not stated) | 110% | 

A section from further up, as a working copy:
Compound | HMGB1-induced TNF-alpha production (compound concentration: 3 uM) | HMGB1-induced TNF-alpha production [1] [%]
CC(=O)OC[C@H]1OC=C[C@@H](OC(C)=O)[C@H]1OC(C)=O [3,4,6-Tri-O-acetyl-D-galactal] |  | 85.8
CCOCCn1c(N2CCCN(C)CC2)nc2ccccc21 [Emedastine] | 100% | 
CN1CC(=O)N=C1NC(=O)Nc1cccc(Cl)c1 [Fenobam] | 120% | 
CC[C@H](C)C(=O)O[C@H]1C[C@H](O)C=C2C=C[C@H](C)[C@H](CC[C@@H](O)C[C@@H](O)CC(=O)O)[C@H]21 | 71.4% | 

Continued:

Compound | HMGB1-induced TNF-alpha production (compound concentration: 3 uM) | HMGB1-induced TNF-alpha production [1] [%]
Cc1nccn1CC1CCc2c(c3ccccc3n2C)C1=O (configuration not stated) [Ondansetron Hydrochloride] | 120% | 
Cc1nccn1CC1CCc2c(c3ccccc3n2C)C1=O (configuration not stated) [Ondansetron] | 83.7% | 
CC(=O)NCCCCCCNC(C)=O | 117% | 
NC(=O)c1cc[n+](CC2=C(C(=O)[O-])N3C(=O)[C@@H](NC(=O)Cc4cccs4)[C@H]3SC2)cc1 | 93.1% | 
O=C1C(O)=C(O)C(=O)C(O)=C1O | 81.6% | 
O=C1C(O)=C(O)C(=O)C(O)=C1O [Tetrahydroxy-1,4-quinone monohydrate] | 112% | 
CC(=O)NC[C@H]1CN(c2ccc(N3CCOCC3)c(F)c2)C(=O)O1 [Linezolid] | 92.1 ± 14% | 
CC(=O)NC[C@H]1CN(c2ccc(N3CCOCC3)c(F)c2)C(=O)O1 | 84.7% | 
O=c1c2ccccc2[nH]c(=S)n1CCN1CCC(=C(c2ccc(F)cc2)c2ccc(F)cc2)CC1 [Diacylglycerol Kinase Inhibitor II] | 86% | 
CSc1ccc(OCCN=Cc2c(O)c(O)c(C(C)C)c3cc(C)c(-c4c(C)cc5c(C(C)C)c(O)c(O)c(C=NCCOc6ccc(SC)cc6)c5c4O)c(O)c23)cc1 |  | 50.4
Cc1cc(O)cc2oc(-c3ccccc3)cc(=O)c12 [7-Hydroxy-5-methylflavone] |  | 64.2
CC(C)CCCC(C)C1CCC2C3CC=C4CC(O)CCC4(C)C3CCC12C (configuration not stated) |  | 73.4
Cc1c2oc3c(C)ccc(C(=O)N[C@@H]4C(=O)N[C@H](C(C)C)C(=O)N5CCC[C@H]5C(=O)N(C)CC(=O)N(C)[C@@H](C(C)C)C(=O)O[C@@H]4C)c3nc-2c(C(=O)N[C@@H]2C(=O)N[C@H](C(C)C)C(=O)N3CCC[C@H]3C(=O)N(C)CC(=O)N(C)[C@@H](C(C)C)C(=O)O[C@@H]2C)c(N)c1=O | -0.851 ± 1.9% | 
COc1ccc2c(c1)c(CC(=O)OCC(=O)O)c(C)n2C(=O)c1ccc(Cl)cc1 [Acemetacin] | 63.2 ± 19% | 
COc1ccc2c(c1)c(CC(=O)OCC(=O)O)c(C)n2C(=O)c1ccc(Cl)cc1 | 81.5% | 
COc1ccc2cc3[n+](cc2c1OC)CCc1cc2c(cc1-3)OCO2 | 99.1 ± 2.2% | 
Nc1ncnc2c1ncn2[C@H]1CC[C@@H](CO)O1 [2',3'-Dideoxyadenosine] |  | 59.7
CC[C@@H]1Cc2cc(O)ccc2C2=C1c1ccc(O)cc1C[C@H]2CC [(R,R)-cis-Diethyl tetrahydro-2,8-chrysenediol] | 68.8% | 
OCC(S)CS (configuration not stated) | 57.5% | 
CC(C)Cn1c(=O)n(C)c(=O)c2nc[nH]c21 [Isobutylmethylxanthine] | 97.6% | 
N=C(N)SCCN [2-(2-Aminoethyl)isothiourea dihydrobromide] | 109% | 

Compound | HMGB1-induced TNF-alpha production (compound concentration: 3 uM) | HMGB1-induced TNF-alpha production [1] [%]
CCCCC1C(=O)N(c2ccccc2)N(c2ccccc2)C1=O | 93.1% | 
CCCCC1C(=O)N(c2ccccc2)N(c2ccccc2)C1=O [Phenylbutazone] | 95.1 ± 7.1% | 
CNCCCCOc1ccccc1Cc1ccccc1 [Bifemelane] | 80.5% | 
COCCCOc1cc(C[C@@H](C[C@H](N)[C@@H](O)C[C@H](C(=O)NCC(C)(C)C(N)=O)C(C)C)C(C)C)ccc1OC | 99.3% | 
CCCCOC(=O)c1ccc(O)cc1 [Butylparaben] | 98.9% | 
CCCCOC(=O)c1ccc(O)cc1 | 97% | 
C#C[C@]1(OC(C)=O)CC[C@H]2[C@@H]3CCC4=CC(=O)CC[C@@H]4[C@H]3CC[C@@]21C | 92.3% | 
CCCc1nc2c(C)cc(-c3nc4ccccc4n3C)cc2n1Cc1ccc(-c2ccccc2C(=O)O)cc1 [Telmisartan] | 96.6 ± 8.4% | 
CCCc1nc2c(C)cc(-c3nc4ccccc4n3C)cc2n1Cc1ccc(-c2ccccc2C(=O)O)cc1 | 78.8% | 
O=C(O)Cc1ccc(O)c(O)c1 [3,4-Dihydroxyphenylacetic acid] | 91.1% | 
NC(N)=NCCC[C@H](NC(=O)c1ccccc1)C(=O)O [N-à-Benzoyl-L-arginine] |  | 95.6
CC(=O)/N=c1/sc(S(N)(=O)=O)nn1C | 79.4% | 
CC(=O)/N=c1/sc(S(N)(=O)=O)nn1C [Methazolamide] | 134% | 
CC1=CC(=O)c2ccccc2C1=O | 62.4% | 
N=C(N)N1CCc2ccccc2C1 [Debrisoquin sulfate] | 81.6 ± 4.2% | 
N=C(N)N1CCc2ccccc2C1 | 94.4% | 
N=C(N)N1CCc2ccccc2C1 [Debrisoquin] | 116% | 
CC(Cc1ccc(O)c(O)c1)C(C)Cc1ccc(O)c(O)c1 (configuration not stated) [Nordihydroguaiaretic acid] |  | 37.7
CCN(CC)CCCN(c1ccccc1)C1Cc2ccccc2C1 [Aprindine hydrochloride] | 90.1% | 

— the supplement of paper PMC3682954
